This experiment deals with ClpC1-MYC (MYC-tagged Arabidopsis ClpC1) (Arabidopsis thaliana) (UniProt Q9FI56). In words: co-IP; protein extracts of N. benthamiana leaves transiently producing DXS-GFP alone or together with ClpC1-MYC; IP with anti-MYC antibodies, immunoblot with anti-GFP or anti-MYC sera. (Immunoblotting shows a protein as a band on a membrane.)

Sequences of proteins named here, by UniProt entry; tags and fusion partners are left off. Residues count along the entry.
UniProt Q9FI56, residues 39-929: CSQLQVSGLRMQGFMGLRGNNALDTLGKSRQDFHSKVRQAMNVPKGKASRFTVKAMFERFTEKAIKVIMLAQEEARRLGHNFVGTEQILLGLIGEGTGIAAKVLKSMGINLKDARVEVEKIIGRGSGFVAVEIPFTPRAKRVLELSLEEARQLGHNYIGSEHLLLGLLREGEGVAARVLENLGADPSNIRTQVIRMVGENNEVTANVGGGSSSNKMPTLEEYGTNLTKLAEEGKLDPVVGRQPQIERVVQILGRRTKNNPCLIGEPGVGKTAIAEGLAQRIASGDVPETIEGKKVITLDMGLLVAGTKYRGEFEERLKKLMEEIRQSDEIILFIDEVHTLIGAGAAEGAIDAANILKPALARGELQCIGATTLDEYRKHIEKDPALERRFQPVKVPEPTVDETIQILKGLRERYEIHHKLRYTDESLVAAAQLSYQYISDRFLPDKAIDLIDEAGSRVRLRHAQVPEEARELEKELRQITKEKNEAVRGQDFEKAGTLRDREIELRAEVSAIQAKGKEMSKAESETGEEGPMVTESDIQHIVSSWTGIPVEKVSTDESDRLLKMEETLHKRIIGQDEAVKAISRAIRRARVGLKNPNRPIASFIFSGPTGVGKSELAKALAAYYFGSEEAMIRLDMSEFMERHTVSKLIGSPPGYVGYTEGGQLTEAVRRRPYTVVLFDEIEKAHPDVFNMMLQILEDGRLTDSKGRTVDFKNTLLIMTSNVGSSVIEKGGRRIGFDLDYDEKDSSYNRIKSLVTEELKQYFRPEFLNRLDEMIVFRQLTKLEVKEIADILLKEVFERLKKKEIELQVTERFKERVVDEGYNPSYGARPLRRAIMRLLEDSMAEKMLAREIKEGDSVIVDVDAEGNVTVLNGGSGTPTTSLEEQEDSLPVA

Results are given in words; binding and its absence hold for the method and conditions named. In cells and extracts the contact can be indirect. Some entries that bind do so weakly or less than the wild type. Where a sequence is shown, tags or fusion partners need not be part of it.

B1: DXS-GFP (GFP-tagged Arabidopsis deoxyxylulose 5-phosphate synthase) (enzyme, UniProt Q38854 59-717)
chain: ASLAEKGEYYSNRPPTPLLDTINYPIHMKNLSVKELKQLSDELRSDVIFNVSKTGGHLGSSLGVVELTVALHYIFNTPQDKILWDVGHQSYPHKILTGRRGKMPTMRQTNGLSGFTKRGESEHDCFGTGHSSTTISAGLGMAVGRDLKGKNNNVVAVIGDGAMTAGQAYEAMNNAGYLDSDMIVILNDNKQVSLPTATLDGPSPPVGALSSALSRLQSNPALRELREVAKGMTKQIGGPMHQLAAKVDEYARGMISGTGSSLFEELGLYYIGPVDGHNIDDLVAILKEVKSTRTTGPVLIHVVTEKGRGYPYAERADDKYHGVVKFDPATGRQFKTTNKTQSYTTYFAEALVAEAEVDKDVVAIHAAMGGGTGLNLFQRRFPTRCFDVGIAEQHAVTFAAGLACEGLKPFCAIYSSFMQRAYDQVVHDVDLQKLPVRFAMDRAGLVGADGPTHCGAFDVTFMACLPNMIVMAPSDEADLFNMVATAVAIDDRPSCFRYPRGNGIGVALPPGNKGVPIEIGKGRILKEGERVALLGYGSAVQSCLGAAVMLEERGLNVTVADARFCKPLDRALIRSLAKSHEVLITVEEGSIGGFGSHVVQFLALDGLLDGKLKWRPMVLPDRYIDHGAPADQLAEAGLMPSHIAATALNLIGAPREALF
As for B1, the binding result is listed as “binds”.
